Measured values: PMC7487413
No constants are given. Whether binding was seen depends on the method and setting. In cells and extracts the contact can be indirect. Some results given as binding are weak or reduced against the parent protein; the word gives no strength. For some assays here: Where a sequence is shown, tags or fusion partners need not be part of it.

Protein sequences, listed by entry. Tags and fused reporters are not part of them. Residues count along the entry.
UniProt P35555, residues 45-2731: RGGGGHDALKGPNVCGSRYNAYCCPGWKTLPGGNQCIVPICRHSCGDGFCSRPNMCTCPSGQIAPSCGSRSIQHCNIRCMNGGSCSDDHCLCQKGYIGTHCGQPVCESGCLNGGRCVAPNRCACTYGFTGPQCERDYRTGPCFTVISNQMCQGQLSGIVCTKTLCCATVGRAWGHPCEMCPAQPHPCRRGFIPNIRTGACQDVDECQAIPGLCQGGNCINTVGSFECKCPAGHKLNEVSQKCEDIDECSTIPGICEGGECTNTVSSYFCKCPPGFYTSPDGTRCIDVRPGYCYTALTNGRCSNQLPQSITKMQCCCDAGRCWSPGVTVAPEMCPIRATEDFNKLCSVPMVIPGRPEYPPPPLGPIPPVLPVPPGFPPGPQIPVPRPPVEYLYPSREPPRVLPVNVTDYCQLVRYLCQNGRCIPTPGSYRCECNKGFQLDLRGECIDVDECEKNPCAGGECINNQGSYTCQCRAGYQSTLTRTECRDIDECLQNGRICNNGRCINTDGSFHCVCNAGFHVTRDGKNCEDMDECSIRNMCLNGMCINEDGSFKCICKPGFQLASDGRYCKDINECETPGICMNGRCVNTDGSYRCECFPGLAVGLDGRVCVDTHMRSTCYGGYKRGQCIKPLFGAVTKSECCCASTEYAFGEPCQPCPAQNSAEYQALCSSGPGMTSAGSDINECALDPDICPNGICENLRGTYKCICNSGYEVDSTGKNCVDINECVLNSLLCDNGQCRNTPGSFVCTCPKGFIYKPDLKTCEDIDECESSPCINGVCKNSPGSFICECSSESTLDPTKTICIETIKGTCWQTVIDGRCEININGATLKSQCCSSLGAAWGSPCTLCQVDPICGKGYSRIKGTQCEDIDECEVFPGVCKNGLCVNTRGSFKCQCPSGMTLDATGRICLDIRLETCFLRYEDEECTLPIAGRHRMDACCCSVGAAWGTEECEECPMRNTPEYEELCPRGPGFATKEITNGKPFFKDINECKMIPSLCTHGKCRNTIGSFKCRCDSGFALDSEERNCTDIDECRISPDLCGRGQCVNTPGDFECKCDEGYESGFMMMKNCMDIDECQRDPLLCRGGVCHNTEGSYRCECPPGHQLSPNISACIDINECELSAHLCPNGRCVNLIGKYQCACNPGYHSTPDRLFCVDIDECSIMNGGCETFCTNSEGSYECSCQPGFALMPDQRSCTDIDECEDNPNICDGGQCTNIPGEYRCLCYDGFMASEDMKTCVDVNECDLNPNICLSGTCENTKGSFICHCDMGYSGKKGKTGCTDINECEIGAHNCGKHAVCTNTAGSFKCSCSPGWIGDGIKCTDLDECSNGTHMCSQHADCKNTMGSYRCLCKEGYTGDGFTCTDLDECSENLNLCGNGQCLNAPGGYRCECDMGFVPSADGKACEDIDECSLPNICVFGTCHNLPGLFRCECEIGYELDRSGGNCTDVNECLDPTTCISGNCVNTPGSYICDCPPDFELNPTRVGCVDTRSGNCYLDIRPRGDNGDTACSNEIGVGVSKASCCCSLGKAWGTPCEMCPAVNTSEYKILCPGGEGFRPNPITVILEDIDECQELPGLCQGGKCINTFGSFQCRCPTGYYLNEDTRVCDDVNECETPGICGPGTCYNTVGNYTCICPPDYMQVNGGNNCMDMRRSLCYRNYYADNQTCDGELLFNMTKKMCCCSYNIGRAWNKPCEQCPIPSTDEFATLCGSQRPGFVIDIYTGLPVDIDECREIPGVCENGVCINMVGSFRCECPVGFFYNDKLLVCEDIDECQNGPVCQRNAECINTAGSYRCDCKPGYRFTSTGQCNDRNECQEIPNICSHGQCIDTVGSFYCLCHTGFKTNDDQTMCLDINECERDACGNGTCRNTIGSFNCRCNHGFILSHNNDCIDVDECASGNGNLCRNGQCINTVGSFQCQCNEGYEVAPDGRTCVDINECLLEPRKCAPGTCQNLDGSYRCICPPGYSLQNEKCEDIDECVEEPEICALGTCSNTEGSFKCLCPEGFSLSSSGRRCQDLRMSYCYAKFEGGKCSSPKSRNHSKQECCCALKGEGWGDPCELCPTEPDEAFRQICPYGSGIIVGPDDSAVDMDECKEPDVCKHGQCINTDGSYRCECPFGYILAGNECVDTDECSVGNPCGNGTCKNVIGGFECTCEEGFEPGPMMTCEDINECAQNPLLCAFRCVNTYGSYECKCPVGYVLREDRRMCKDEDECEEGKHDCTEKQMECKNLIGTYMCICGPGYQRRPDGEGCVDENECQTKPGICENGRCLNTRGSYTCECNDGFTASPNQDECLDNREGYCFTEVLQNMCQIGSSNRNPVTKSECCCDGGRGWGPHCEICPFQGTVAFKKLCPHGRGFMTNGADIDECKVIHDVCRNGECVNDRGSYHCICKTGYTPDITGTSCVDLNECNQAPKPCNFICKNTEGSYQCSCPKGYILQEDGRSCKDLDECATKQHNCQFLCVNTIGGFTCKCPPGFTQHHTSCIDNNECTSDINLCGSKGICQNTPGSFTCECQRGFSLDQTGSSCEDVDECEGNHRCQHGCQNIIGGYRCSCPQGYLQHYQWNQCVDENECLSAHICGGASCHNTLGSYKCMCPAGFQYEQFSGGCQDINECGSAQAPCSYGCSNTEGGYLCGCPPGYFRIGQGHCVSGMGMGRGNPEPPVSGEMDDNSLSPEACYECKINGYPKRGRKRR

Key:
[1] = target: T1, FBXO2 (F-box only protein 2), endogenous (human (endogenous in RL95-2 and Ishikawa)) (UniProt Q9UK22); assay: co-IP; endogenous proteins; RL95-2 and Ishikawa cell lysates precipitated with anti-FBXO2 or anti-FBN1 and protein A/G agarose, western blot
T1 sequence: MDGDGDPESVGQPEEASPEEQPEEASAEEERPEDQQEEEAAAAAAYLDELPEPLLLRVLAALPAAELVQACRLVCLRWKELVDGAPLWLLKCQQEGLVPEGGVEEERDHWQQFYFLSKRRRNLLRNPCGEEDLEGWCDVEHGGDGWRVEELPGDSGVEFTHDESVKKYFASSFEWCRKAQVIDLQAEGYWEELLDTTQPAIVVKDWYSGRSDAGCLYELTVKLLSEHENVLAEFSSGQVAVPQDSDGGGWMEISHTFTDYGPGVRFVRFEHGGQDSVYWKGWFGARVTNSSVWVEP

[2] = target: T2, Flag-tagged wild-type (WT) FBXO2 (F-box only protein 2) (human) (UniProt Q9UK22); assay: co-IP; HEK-293T cells co-transfected with Flag-FBXO2 and Myc-FBN1 for 48 h, 20 uM MG132 for 8 h; lysates precipitated with anti-Flag or anti-Myc beads, western blot
T2 sequence: T1 sequence

binding [1]	binding [2]	Substance
binds	–	FBN1 (fibrillin1), endogenous (from UniProt P35555 45-2731)
–	binds	Myc-tagged FBN1 (fibrillin1) (from UniProt P35555 45-2731)
